Source: PubChem BioAssay AID1259254 (NCATS, 2017)
In all, the deposit lists about 59,000 reagents; this is a part drawn at random. About 1,550 of them (2.6%) were called active. 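G2 share is only a proxy for re-replication; each gene was hit by three separate siRNAs, and active genes were retested.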 Reagents against one gene are numbered here. Further read-outs or replicates are left out here. Reagent sequences are not shown. Not stated in the record: the amount of reagent.

Aim: 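Finding genes that stop cells copying their DNA twice in one cycle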 (primary screen)
Cell system: human HCT116 colorectal cancer cells
Reagent: single siRNA against human genes
Timing: 3 days
Detection: 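Nuclei stained with Hoechst and imaged; cell-cycle phase assigned by DNA content; G2 share scaled per plate, non-targeting siRNA 0%, GMNN siRNA 100%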
Reading the numbers: G2 robust z-score: higher = more G2 cells, more excess DNA replication
Rule for the call: 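An siRNA counts as active if its G2 robust z-score lies at least 5 MADs above the screen median; here such calls match roughly 38% of GMNN control or more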

G2 robust z-score, by gene and reagent
ARMH3 (GeneID 79591): #1 -0.205 inactive; #2 0.818 inactive; #3 0.348 inactive
ANKDD1B (GeneID 728780): #1 1.22 inactive; #2 0.815 inactive; #3 0.285 inactive
MYPOP (GeneID 339344): #1 -0.299 inactive; #2 0.0851 inactive; #3 -1.2 inactive
ACTR3B (GeneID 57180): #1 0.862 inactive; #2 3.67 inactive; #3 -0.0664 inactive
DCAF8 (GeneID 50717): #1 -0.695 inactive; #2 0.00808 inactive; #3 -0.689 inactive
CLEC18A (GeneID 348174): #1 1.23 inactive; #2 0.236 inactive; #3 0.49 inactive
CLSTN3 (GeneID 9746): #1 0.722 inactive; #2 -0.145 inactive; #3 -0.469 inactive
PLSCR5 (GeneID 389158): #1 -0.941 inactive; #2 -0.503 inactive; #3 0.0153 inactive
OR7A17 (GeneID 26333): #1 0.666 inactive; #2 -0.563 inactive; #3 0.965 inactive
RPL36AP31 (GeneID 642320): #1 -0.0722 inactive; #2 0.313 inactive; #3 -1.09 inactive
PTPN23 (GeneID 25930): #1 -0.653 inactive; #2 3.61 inactive; #3 0.313 inactive
ARRDC4 (GeneID 91947): #1 -0.986 inactive; #2 -0.808 inactive; #3 -0.0912 inactive
LOC338963 (GeneID 338963): #1 4.28 inactive; #2 0.321 inactive; #3 0.219 inactive
CD99 (GeneID 4267): #1 -1.2 inactive; #2 -0.316 inactive; #3 5.39 active
WASHC5 (GeneID 9897): #1 1.47 inactive; #2 -0.196 inactive; #3 4.36 inactive

Hits (from the list above):
G2 robust z-score, by gene and reagent
CD99 (GeneID 4267): #3 5.39 active

The results go on:
G2 robust z-score, by gene and reagent
MIB1 (GeneID 57534): #1 3.95 inactive; #2 1.84 inactive; #3 -0.524 inactive
ARHGAP21 (GeneID 57584): #1 -0.952 inactive; #2 -0.969 inactive; #3 -0.268 inactive
SPDYC (GeneID 387778): #1 0.4 inactive; #2 1.26 inactive; #3 -0.865 inactive
PGAP3 (GeneID 93210): #1 0.972 inactive; #2 -0.493 inactive; #3 0.393 inactive
TEC (GeneID 7006): #1 2.07 inactive; #2 0.414 inactive; #3 -0.136 inactive
ZGRF1 (GeneID 55345): #1 -0.255 inactive; #2 0.298 inactive; #3 1.28 inactive; #4 -1.32 inactive; #5 -1.06 inactive; #6 -0.17 inactive
ZNF787 (GeneID 126208): #1 -0.0325 inactive; #2 0.166 inactive; #3 -0.905 inactive
